Experimental data taken from patent US8178077B2, “Drug development target protein and target gene, and method of screening” (Reverse Proteomics Research Institute Co., Ltd., priority 2004, dated 2012).

Key:
[1] = target: T1, FLJ39196 clone-derived protein (human neurocalcin δ) (Homo sapiens, UniProt P61601); assay: SEC/MS interaction analysis (size exclusion spin column and mass analysis) with FLJ39196 clone-derived protein; type: binding
T1 construct: A human full-length cDNA clone was expressed as a protein with an N-terminal His tag; His tag (N); made in house; host or cells: Escherichia coli BL21star(DE3)pLysS (pDEST17 Gateway expression plasmid)
Source text: To analyze the interactions between commonly used drugs and proteins expressed from human full-length cDNA clones while keeping both the proteins and the compounds in non-modified, non-immobilized state, size exclusion chromatography (SEC) and mass analysis were used in combination (FIGS. 1, 2). The specific procedures are shown below.
The compound-protein mixture prepared in step 1 was subjected to chromatography using an SEC column, the compound and the protein were separated by SEC, and the compound that interacted with the bound compound or protein contained in the protein fraction was analyzed using a mass analyzer.
Protein concentrations were measured using BCA Protein Assay (PIERCE), in consideration of the purity calculated by SDS-PAGE.
Mass analysis was performed using LCQ DECA XP (Thermoelectron) or Q-TOFmicro (Micromass), equipped with an ESI probe. The LC pump used was Agilent 1100 (Yokogawa Analytical Systems), and the autosampler used was HTC-PAL (CTC Analytics) equipped with a cooling stacker.
In the SEC method using 384-well spin columns, Unifilter 100 (Whatman), packed with 10 μL (dry volume) of Bio-Gel P6 (BIO-RAD) and swollen with milliQ water, was used as the SEC column. 13.3 μL of a protein-free reference standard or a 25 μM protein standard and 0.7 μL of a multiplied liquid comprising 25 μM of each pharmaceutical compound (5% DMSO aqueous solution) were mixed; 9 μL of this mixture was aliquoted into the SEC spin columns. The SEC spin column was mounted on an acetonitrile-aliquoted 384-well U-bottom plate and centrifuged; the SEC spin column filtrate, which is a protein fraction, was retrieved in 50% acetonitrile. The protein precipitate produced by the acetonitrile was removed via centrifugation and filtration for deproteinization; the resulting filtrate was concentrated by centrifugation and re-dissolved in 10 μL of 50% methanol to obtain a mass analysis sample. The mobile phase supplied to the mass analyzer was 0.1% formic acid/50% methanol solution in the positive ion mode, and 0.1% ammonia/50% methanol solution in the negative ion mode; these mobile phases were used at a flow rate of 40 μL/min. 2-μL of mass analysis samples were injected using an autosampler at 2-minute intervals; the mass spectral intensity of the compound was measured to obtain the spectral intensity of the pharmaceutical compound contained in the SEC spin column filtrate (protein fraction eluted from SEC).

[2] = target: T2, FLJ20589 clone-derived protein (human hippocalcin-like protein 1, VILIP-3) (Homo sapiens, UniProt P37235); assay: SEC/MS interaction analysis (size exclusion spin column and mass analysis) with FLJ20589 clone-derived protein; type: binding
T2 construct: A human full-length cDNA clone was expressed as a protein with an N-terminal His tag; His tag (N); made in house; host or cells: Escherichia coli BL21star(DE3)pLysS (pDEST17 Gateway expression plasmid)

[3] = protein 0 μM (protein-free reference), compound 1 μM
[4] = protein 0 μM (protein-free reference), compound 10 μM
[5] = protein 0 μM (protein-free reference), compound 100 μM
[6] = protein 0 μM (protein-free reference), compound 250 μM
[7] = protein 23.75 μM, compound 1 μM
[8] = protein 23.75 μM, compound 10 μM
[9] = protein 23.75 μM, compound 100 μM
[10] = protein 23.75 μM, compound 250 μM
[11] = protein 47.5 μM, compound 10 μM
[12] = protein 47.5 μM, compound 100 μM
[13] = protein 47.5 μM, compound 250 μM

CC(C)(C)CC(C)(C)c1ccc(OCCOCC[N+](C)(C)Cc2ccccc2)cc1 [Benzethonium]
spectral intensity of the compound in the SEC spin column filtrate (protein fraction) [1, 3]: 7744717 | spectral intensity of the compound in the SEC spin column filtrate (protein fraction) [1, 4]: 5781630 | spectral intensity of the compound in the SEC spin column filtrate (protein fraction) [1, 5]: 110985750 | spectral intensity of the compound in the SEC spin column filtrate (protein fraction) [1, 6]: 3418189873 | spectral intensity of the compound in the SEC spin column filtrate (protein fraction) [1, 7]: 7361705 | spectral intensity of the compound in the SEC spin column filtrate (protein fraction) [1, 8]: 346972055 | spectral intensity of the compound in the SEC spin column filtrate (protein fraction) [1, 9]: 5864609237 | spectral intensity of the compound in the SEC spin column filtrate (protein fraction) [1, 10]: 6839519322 | spectral intensity of the compound in the SEC spin column filtrate (protein fraction) ([1]; protein 47.5 μM, compound 1 μM): 18097692 | spectral intensity of the compound in the SEC spin column filtrate (protein fraction) [1, 11]: 724595729 | spectral intensity of the compound in the SEC spin column filtrate (protein fraction) [1, 12]: 9268734340 | spectral intensity of the compound in the SEC spin column filtrate (protein fraction) [1, 13]: 14536894458 | spectral intensity of the compound in the SEC spin column filtrate (protein fraction) [2, 3]: 681042 | spectral intensity of the compound in the SEC spin column filtrate (protein fraction) [2, 4]: 536408 | spectral intensity of the compound in the SEC spin column filtrate (protein fraction) [2, 5]: 1019183 | spectral intensity of the compound in the SEC spin column filtrate (protein fraction) [2, 6]: 1894576 | spectral intensity of the compound in the SEC spin column filtrate (protein fraction) [2, 7]: 567621 | spectral intensity of the compound in the SEC spin column filtrate (protein fraction) [2, 8]: 13777320 | spectral intensity of the compound in the SEC spin column filtrate (protein fraction) [2, 9]: 732075554 | spectral intensity of the compound in the SEC spin column filtrate (protein fraction) [2, 10]: 363052655 | spectral intensity of the compound in the SEC spin column filtrate (protein fraction) ([2]; protein 47.5 μM, compound 1 μM): 179741 | spectral intensity of the compound in the SEC spin column filtrate (protein fraction) [2, 11]: 1125025 | spectral intensity of the compound in the SEC spin column filtrate (protein fraction) [2, 12]: 368271326 | spectral intensity of the compound in the SEC spin column filtrate (protein fraction) [2, 13]: 1844957985
